Values from PubChem BioAssay AID1508588 (Peter MacCallum Cancer Centre, 2020).
Here is a random part of about 18,000 reagents tested. 790 of them (4.4%) count as active. 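Calls rest on a combination of fold-change classes in drug and vehicle arms, not all shown here.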 A number with no mark means an inactive call.

Screen: 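Which gene losses make BRAF-mutant melanoma cells more responsive to vemurafenib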 (primary screen)
System: human WM266.4 melanoma cells (BRAF V600 mutant)
Knock-down reagent: siRNA pool against human genes, 40 nM
Time to read-out: 96 h from transfection to read-out
Challenge: vemurafenib 300 nM (about IC25), added 48 h after transfection, for 48 h; comparison arm got DMSO vehicle only
Measurement: 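Ratios to non-targeting siRNA for cell gain, counted as DAPI nuclei after minus before drug and averaged over two replicates, and for absorbance-read medium lactate per cell; both binned into fold-change classes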
Reading the numbers: cell gain with vemurafenib: higher = more cell gain than with non-targeting siRNA; lactate per cell with vemurafenib: higher = more lactate made per cell
Call rule: 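a knock-down counts as enhancing when its fold-change classes with vehicle and with vemurafenib, taken together, show a stronger drug effect on cell gain or lactate per cell; exact class pairs not stated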
Calls: active = enhances vemurafenib effect; inactive = no enhancement seen

After knock-down of MFAP2 the results were cell gain with vemurafenib 0.4; lactate per cell with vemurafenib 1.79. With knock-down of TSC2, the record shows cell gain with vemurafenib 0.64; lactate per cell with vemurafenib 0.99. PCDH17 scored cell gain with vemurafenib 0.92; lactate per cell with vemurafenib 0.62. Knock-down of SAMD9L resulted in: cell gain with vemurafenib 0.78; lactate per cell with vemurafenib 0.62. Against DEFA3, the values are cell gain with vemurafenib 1; lactate per cell with vemurafenib 0.45. Depletion of PCDH19 came out at: cell gain with vemurafenib 0.49 (active); lactate per cell with vemurafenib 0.45.

Depletion of LELP1 came out at: cell gain with vemurafenib 1.06; lactate per cell with vemurafenib 0.38. For OR7E24, the entry reads cell gain with vemurafenib 1.16; lactate per cell with vemurafenib 0.7. After knock-down of IL17REL, the record shows cell gain with vemurafenib 0.28; lactate per cell with vemurafenib 2.47. Against CATSPERE, the values are cell gain with vemurafenib 0.89; lactate per cell with vemurafenib 0.96. Against UQCC2 the deposit lists cell gain with vemurafenib 0.87; lactate per cell with vemurafenib 2.12. Against BASP1, the entry reads cell gain with vemurafenib 0.25 (active); lactate per cell with vemurafenib 0.6.

PDE8A gave cell gain with vemurafenib 0.33 (active); lactate per cell with vemurafenib 0.07. Against SLC25A47, the values are cell gain with vemurafenib 0.32; lactate per cell with vemurafenib 1.1. Against CDYL, the entry reads cell gain with vemurafenib 0.88; lactate per cell with vemurafenib 1.29.

Ordered by “lactate per cell with vemurafenib” (highest first): 3 of the entries above.
OR7E24 — cell gain with vemurafenib = 1.16; lactate per cell with vemurafenib = 0.7
PCDH19 — cell gain with vemurafenib = 0.49 (active); lactate per cell with vemurafenib = 0.45
LELP1 — cell gain with vemurafenib = 1.06; lactate per cell with vemurafenib = 0.38

Additional records follow:
Against ERICH1, the values are cell gain with vemurafenib 0.64; lactate per cell with vemurafenib 1.17. After knock-down of DTL, the screen gave cell gain with vemurafenib 0.33; lactate per cell with vemurafenib 1.41. For IKZF3, the values are cell gain with vemurafenib 0.94; lactate per cell with vemurafenib 0.55. With knock-down of KCNJ8, the screen gave cell gain with vemurafenib 0.54; lactate per cell with vemurafenib 1.81. For RPL21, the entry reads cell gain with vemurafenib -0.06; lactate per cell with vemurafenib 2.09. With knock-down of CCSER2, the screen gave cell gain with vemurafenib 0.65; lactate per cell with vemurafenib 0.91.

Knock-down of NSUN4 gave: cell gain with vemurafenib 1.32; lactate per cell with vemurafenib 1.12. CD101 gave cell gain with vemurafenib 1.28; lactate per cell with vemurafenib 0.68. With knock-down of CACYBP, the record shows cell gain with vemurafenib 0.79; lactate per cell with vemurafenib 0.98. TTK scored cell gain with vemurafenib -0.1; lactate per cell with vemurafenib 5.14. Knock-down of CAMK1 gave: cell gain with vemurafenib 0.22; lactate per cell with vemurafenib 1.83. After knock-down of PRSS22, the screen gave cell gain with vemurafenib 0.15; lactate per cell with vemurafenib 1.26.
